Results are given in words; binding and its absence hold for the method and conditions named. In cells and extracts the contact can be indirect. Some results given as binding are weak or reduced against the parent protein; the word gives no strength.
Biological target: T1, TRIM46 (human (endogenous in H358)) (UniProt Q7Z4K8)
T1 sequence: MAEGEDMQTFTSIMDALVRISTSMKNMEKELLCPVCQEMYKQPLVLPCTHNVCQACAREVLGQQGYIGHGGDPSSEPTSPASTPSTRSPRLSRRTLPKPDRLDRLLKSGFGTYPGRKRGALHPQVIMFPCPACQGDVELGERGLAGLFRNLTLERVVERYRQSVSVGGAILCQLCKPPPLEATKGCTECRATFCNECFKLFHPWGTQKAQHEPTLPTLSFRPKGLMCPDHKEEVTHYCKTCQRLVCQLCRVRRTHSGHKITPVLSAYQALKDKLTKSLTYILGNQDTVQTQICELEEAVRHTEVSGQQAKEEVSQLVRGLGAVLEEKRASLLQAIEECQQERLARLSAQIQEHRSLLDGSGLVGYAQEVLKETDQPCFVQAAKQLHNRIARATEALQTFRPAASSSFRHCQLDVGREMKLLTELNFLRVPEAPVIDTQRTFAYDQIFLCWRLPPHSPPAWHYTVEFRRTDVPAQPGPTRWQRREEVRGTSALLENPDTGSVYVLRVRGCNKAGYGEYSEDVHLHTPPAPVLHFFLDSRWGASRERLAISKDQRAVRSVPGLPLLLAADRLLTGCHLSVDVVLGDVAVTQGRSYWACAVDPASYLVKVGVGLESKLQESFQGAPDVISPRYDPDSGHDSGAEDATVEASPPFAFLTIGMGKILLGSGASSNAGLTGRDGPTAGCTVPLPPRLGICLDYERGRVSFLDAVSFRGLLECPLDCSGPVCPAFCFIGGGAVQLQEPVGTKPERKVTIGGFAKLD
Assay: co-IP; H358 cell lysates; anti-TRIM46, anti-PHLPP2 antibody or control IgG for 1 h at 4 °C, then protein A/G beads for 3 h at 4 °C; immunoblot

binding: binds
B1: pleckstrin homology domain leucine-rich repeat protein phosphatase 2 (protein, UniProt Q6ZVD8 1-1323)
chain: MKRNGSRNCLNRRSRFGSRERDWLREDVKRGCVYLYGADTTTATTTTTTSSSSSSSSSSSDLHLVLCTVETPASEICAGEGRESLYLQLHGDLVRRLEPTERPLQIVYDYLSRLGFDDPVRIQEEATNPDLGCMIRFYGEKPCHMDRLDRILLSGIYNVRKGKTQLHKWAERLVVLCGTCLIVSSVKDCQTGKMHILPLVGGKIEEVKRRQYSLAFSSAGAQAQTYHVSFETLAEYQRWQRQASKVVSQRISTVDLSCYSLEEVPEHLFYSQDITYLNLRHNFMQLERPGGLDTLYKFSQLKGLNLSHNKLGLFPILLCEISTLTELNLSCNGFHDLPSQIGNLLNLQTLCLDGNFLTTLPEELGNLQQLSSLGISFNNFSQIPEVYEKLTMLDRVVMAGNCLEVLNLGVLNRMNHIKHVDLRMNHLKTMVIENLEGNKHITHVDLRDNRLTDLDLSSLCSLEQLHCGRNQLRELTLSGFSLRTLYASSNRLTAVNVYPVPSLLTFLDLSRNLLECVPDWACEAKKIEVLDVSYNLLTEVPVRILSSLSLRKLMLGHNHVQNLPTLVEHIPLEVLDLQHNALTRLPDTLFSKALNLRYLNASANSLESLPSACTGEESLSMLQLLYLTNNLLTDQCIPVLVGHLHLRILHLANNQLQTFPASKLNKLEQLEELNLSGNKLKTIPTTIANCKRLHTLVAHSNNISIFPEILQLPQIQFVDLSCNDLTEILIPEALPATLQDLDLTGNTNLVLEHKTLDIFSHITTLKIDQKPLPTTDSTVTSTFWSHGLAEMAGQRNKLCVSALAMDSFAEGVGAVYGMFDGDRNEELPRLLQCTMADVLLEEVQQSTNDTVFMANTFLVSHRKLGMAGQKLGSSALLCYIRPDTADPASSFSLTVANVGTCQAVLCRGGKPVPLSKVFSLEQDPEEAQRVKDQKAIITEDNKVNGVTCCTRMLGCTYLYPWILPKPHISSTPLTIQDELLILGNKALWEHLSYTEAVNAVRHVQDPLAAAKKLCTLAQSYGCQDNVGAMVVYLNIGEEGCTCEMNGLTLPGPVGFASTTTIKDAPKPATPSSSSGIASEFSSEMSTSEVSSEVGSTASDEHNAGGLDTALLPRPERRCSLHPTPTSGLFQRQPSSATFSSNQSDNGLDSDDDQPVEGVITNGSKVEVEVDIHCCRGRDLENSPPLIESSPTLCSEEHARGSCFGIRRQNSVNSGMLLPMSKDRMELQKSPSTSCLYGKKLSNGSIVPLEDSLNLIEVATEVPKRKTGYFAAPTQMEPEDQFVVPHDLEEEVKEQMKQHQDSRLEPEPHEEDRTEPPEEFDTAL

— publication PMC8967906
